No constants are given. Whether binding was seen depends on the method and setting. Some binding calls cover weakened binding; strength is not graded here.
Experiments:
[1] = molecular target: recombinant hEPOR-Fc (Sino Biological, Cat #10707-H02H) (human) (UniProt P19235); assay: B cells of immunised ATX-GL mice stained with fluorescent hEPOR-Fc, sorted, single-cell sequenced
[2] = molecular target: recombinant hEPOR-Fc (Sino Biological, Cat #10707-H02H) (human) (UniProt P19235); assay: B cells sorted by staining with fluorescence labeled hEPOR-Fc, single cell sequencing

By UniProt entry, the sequences of proteins in these tests, tags left out. Where a name states a change or a piece, a line headed by the entry shows the natural chain unless it says otherwise. Residues count along the entry.
UniProt P19235, residues 25-250: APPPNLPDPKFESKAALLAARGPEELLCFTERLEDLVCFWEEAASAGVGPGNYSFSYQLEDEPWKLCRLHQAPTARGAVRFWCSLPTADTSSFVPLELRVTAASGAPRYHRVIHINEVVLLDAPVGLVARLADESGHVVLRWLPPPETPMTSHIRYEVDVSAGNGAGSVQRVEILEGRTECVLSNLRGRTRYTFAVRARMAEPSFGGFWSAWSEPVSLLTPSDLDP

Row | binding [1] | binding [2] | Binder
1 | binds |  | anti-EPOR antibody clonotype646 (antibody, V domains shown) VH: QLQLQESGPGLVKPSETLSLTCTVSGGSISSSGYYWGWIRQSPGKGLEWIGSFYYSGSTYYNPSLKSRVTISVDTSKNQFSLKLSSVTAADTAVYYCARQGRITMVRGVIPFDYWGQGTLVTVSS VL: QSALTQPASVSGSPGQSITISCTGTSSDVGGYNYVSWYQQHPGKAPKLMIYEVSNRPSGVSNRFSGSKSGNTASLTISGLQAEDEADYYCSSYTSSSTLVFGGGTKLTVL
2 |  | binds | clonotype 458 (antibody, V domains shown) VH: QVQLVESGGGLVKPGGSLRLSCAASGFTFSDYYMSWIRQAPGKGLEWVSYISSSGSTIYYADSVKGRFTISRDNAKNSLYLQMNSLRAEDTAVYYCARDGQLWSFDYWGQGTLVTVSS VL: QSVLTQPPSVSGAPGQRVTISCTGSSSNIGAGYDVHWYQQLPGTAPKLLIYGNSNRPSGVPDRFSGSKSGTSASLAITGLQAEDEADYYCQSYDSSLSDVVFGGGTKLTVL
3 | binds |  | anti-EPOR antibody clonotype607 (antibody, V domains shown) VH: EVQLVESGGGLVQPGGSLRLSCAASGFTFSTYSVKWVRQAPGKGLEWVSYISSGSSTIYYADSVKGRFTISRDNAKNSLYLQMNSLRDEDTAVYYCARDPTTIFGVVPYYYMDVWGTGTTVTVSS VL: SSELTQDPAVSVALGQTVRITCQGDSLRSYYATWYQQKPGQAPVLVIYGRNNRPSGIPDRFSGSSSGNTASLTITGAQAEDEADYYCYSRDSSGNHLVFGGGTNLTVL
4 | binds |  | anti-EPOR antibody clonotype611 (antibody, V domains shown) VH: QVHLQQSGPGLVKPSQTLSLTCAISGDSVSSNSAAWNWIRQSPSRGLEWLGRTYYRSKWYNDYAVSVKSRITINSDTSKNQFSLQLNSVTPEDTAVYYCSRDRLIVGASYFDLWGRGTLVTVSS VL: SSELTQDPAVSVALGQTVRITCQGDSLRSYYASWYQQKPGQAPVLVFYGKNKRPSGIPDRFSGSSSGNTASLTITGAQAEDEADYYCNSRDSNGNHWVFGGGTKLSVL
5 | binds |  | anti-EPOR antibody clonotype612 (antibody, V domains shown) VH: EVQLVESGGGVVRPGGSLRLSCAASGFTFDDYGMSWVRQAPGKGLEWVSGINWNGGSTGYADSVKGRFTISRDNAKNSLYLQMNSLRAEDTALYYCAREKAPAHRSSWSWYFDLWGRGTLVTVSS VL: QSALTQPASVSGSPGQSITISCTGTSSDVGGYNYVSWYQQHPGKAPKLMIYDVSKRPSGVSNRFSGSKSGNTASLTISGLQAEDEADYYCCSYAGSSWVFGGGTKLTVL
6 | binds |  | anti-EPOR antibody clonotype625 (antibody, V domains shown) VH: QVQLQQWGAGLLKPSETLSLTCAVYGGSFSGYYWSWIRQPPGKGLEWIGEINHSGSTNYNPSLKSRVTISVDTSKNQFSLKLSSVTAADTAVYYCARGWGSSSWYYFDYWGQGTLVTVSS VL: SYELTQPPSVSVSPGQTARITCSGDALPKKYAYWYQQKSGQAPVLVIYEDNKRPSGIPERFSGSSSGTMATLTISGAQVEDEADYYCYSTDSSGNHRVFGGGTKLTVL
7 | binds |  | anti-EPOR antibody clonotype647 (antibody, V domains shown) VH: QVQLQQWGAGLLKPSETLSLTCAVYGGSFSGYYWSWIRQPPGKGLEWIGEINHSGSTNYNPSLKSRVTISVDTSKNQFSLKLSSVTAADTAVYYCAGGYCSSTSCRYNWNYGGWFDPWGQGTLVTVSS VL: QAVVTQEPSLTVSPGGTVTLTCGSSTGAVTSGHYPYWFQQKPGQAPRTLIYDTSNKHSWTPARFSGSLLGGKAALTLSGAQPEDEAEYYCLLSYSGARVFGGGTKLTVL
8 |  | binds | clonotype 460 (antibody, V domains shown) VH: EVQLVESGGGLVQPGGSLRLSCAASGFTFSSYWMSWVRQAPGKGLEWVANIKQDGSEKYYVDSVKGRFTISRDNAKNSLYLQMNSLRAEDTAVYYCARDSNWGVFDYWGQGTLVTVSS VL: QAVLTQPASLSASPGASASLTCTLRSGINVGTYRIYWYQQKPGSPPQYLLRYKSDSDKQQGSGVPSRFSGSKDASANAGILLISGLQSEDEADYYCMIWHSSAWVFGGGTKLTVL
9 |  | binds | clonotype 457 (antibody, V domains shown) VH: EVQLVESGGGLVQPGRSLRLSCAASGFTFDDYAMHWVRQAPGKGLEWVSGISWNSGSIGYADSVKGRFTISRDNAKNSLYLQMNSLRAEDTALYYCAKDSGSYYFDYWGQGTLVTVSS VL: QSALTQPPSASGSPGQSVTISCTGTSSDVGGYNYVSWYQQHPGKAPKLMIYEVSKRPSGVPDRFSGSKSGNTASLTVSGLQAEDEADYYCSSYAGSNNFVVFGGGTKLTVL

Further lines, the binder ahead of its results:

Row | Binder | binding [1] | binding [2]
10 | anti-EPOR antibody clonotype583 (antibody, V domains shown) VH: QVQLVQSGAEVKKPRASVKVSCEASGYTFTTYGISWVRQAPGQGLEWMGWISAYNGNTKYTQKLQGRVAMTTDTSTSTAYMEVRSLRSDDTAVYYCARSGYNWNYDYYFMDVWGTGTTVTVSS VL: QSILTQPPSVSATPGQRVTISCTGSDSNIGAGYDVHWYQQLPGAVPRLLIHDNIIRPSGVPDRFSGSKSDTSASLAISGLHAEDEADYYCQSYDISLSGSVVFGGGTKLTVL | binds | 
11 | anti-EPOR antibody clonotype601 (antibody, V domains shown) VH: QVQLVQSGAEVKKPGASVKVSCKASGYSFSSYGIGWVRQAPGQGLEWMGWISGYNGNTNYAQKFQGRVTMTTDTSTSTAHMEVKSLRSDDTAAYYCARAYCGGDCYYSNAFDAWGQGTMVTVSS VL: QSALTQPASVSGSPGQSITISCTGTSSDVGGYNYVSWYQQHPGKAPKLMIYEVSNRPSGVSNRFSGSKSGNTASLTISGLQAEDEADYYCSSYTSSSTVVFGGGTKLTVL | binds | 
12 | anti-EPOR antibody clonotype587 (antibody, V domains shown) VH: QVQLQQSGPGLVKPSQTLSLTCAISGDSVSSNSAAWNWIRQSPSRGLEWLGRTYYRSKWYSDYAVSVKSRITINPDTSKNQFSLQLNSVTPEDTAVYYCARVDFGIVGAIDYWGQGTLVTVSS VL: SYELTQPPSVSVSPGQTARITCSGDGLSKKYAYWYQQKSGQAPVLVIYEDSKRPSGIPERFSGSSSGTMATLTVSGAQVEDEADYYCYSTDSSGKIFGGGTKLTVL | binds | 
13 | anti-EPOR antibody clonotype578 (antibody, V domains shown) VH: EVQLVESGGGVVRPGGSLRLSCAASGFTFGDFGMSWVRQAPGKGLEWVSGINWNGGSTGYADSVKGRFTISRDNAKNSLYLQMNSLRAEDTALYYCASLVGATDYYFYYMDVWGKGTTVTVSS VL: QSALTQPPSASGSPGQSVTISCTGTSSDVGGYNYVSWYQQHPGKAPKLMIYEVNKRPSGVPDRLSGSKSGNTASLTVSGLQAEDEADYYCSSYAGSNNWVFGGGTKLTVL | binds | 
14 | anti-EPOR antibody clonotype581 (antibody, V domains shown) VH: EVQLVESGGGLVQPGGSLRLSCAASGFTFSSYSMNWVRQAPGKGLEWVSYISSSSSTIYYADSVKGRFTISRDNAKNSLYLQMNSLRDEDTAVYYCAREERDDYSNYGYFQHWGQGTLVTVSS VL: QSVLTQPPSVSGAPGQRVTISCTGSSSNIGAGYDVHWYQQLPGTAPKLLIYGNSNRPSGVPDRFSGSKSGTSASLAITGLQAEDEADYYCQSYDSSLSGWVFGGGTKLTVL | binds | 
15 | anti-EPOR antibody clonotype576 (antibody, V domains shown) VH: QVQLQESGPGLVKPSETLSLTCTVSGGSISSYYWSWIRQPPGKGLEWIGHIYYSGSTNYNPSLKSRVTISVDTSKNQFSLKLSSVTAADTAVYYCARDPFYYDFSDYYYMDVWGKGTTVTVSS VL: QSALTQPASVSGSPGQSITISCTGTSSDVGAYNYVSWYQQHPGKAPKLMIYAVSKRPSGVSYRFSGSKSGNTASLTISGLQAEDEADYYCCSYAGTISWVFGGGTKLTVL | binds | 
16 | anti-EPOR antibody clonotype588 (antibody, V domains shown) VH: EVQLVESGGGLVKPGGSLRLSCAASAFTFSNYNMNWVRQAPGKGLEWVSSISSSTSYIYYADSVKGRFTVSRDNAKNSLYLQMNSLRAEDTAVYYCARDRDDFWSGYSPYFDYWGQGTLVTVSS VL: SSELTQDPAVSVALGQTVRITCQGDSLRSYYASWYQQKPGQAPVLVIYGKNNRPSGIPDRFSGSSSGNTASLTITGAQAEDEADYYCNSRDSSGNHWVFGGGTKLTVL | binds | 
17 | anti-EPOR antibody clonotype600 (antibody, V domains shown) VH: QLQLQESGPGLVKPSETLSLTCTVSGGSISSSSYYWGWIRQPPGKGLEWIGSIHYSGSTYYNPSLKSRVTTSVDTSKNQFSLKLSSVTAADTAVYYCASEGPYFDYWGQGTLVTVSS VL: SSELTQDPAVSVALGQTVRITCQGDSLRSYYASWYQQKPGQAPVLVIYGKNNRPSGIPDRFSGSSSGNTASLTITGAQAEDEADYYCNSRDSSGNHWVFGGGTKLTVL | binds | 
18 | anti-EPOR antibody clonotype598 (antibody, V domains shown) VH: EVQMVESGGGLVQPGGSLRLSCAASGFTFSSHVMSWVRQAPGKGLEWVSVISGSESSTYYADSVKGRFTISSDNSKNTLYLQMNSLRAEDTAIYYCAKRAGSGTYYRGYYFDYWGQGTLVTVSS VL: SSELTQDPAVSVALGQTVRITCQGDSLRSYYASWYQQKPGQAPVLVIYGKNNRPSGIPDRFSGSSSGNTASLTITGAQAEDEADYYCNSRDSSGNHWVFGGGTKLTVL | binds | 
19 | anti-EPOR antibody clonotype589 (antibody, V domains shown) VH: EVQLVESGGGLVKPGGSLRLSCAASGFTFSSYSMNWVRQAPGKGLEWVSSISSSSSYIYYADSVKGRFTISRDNAKNSLYLQMNSLRAEDTAVYYCAREKYDILTGYSPYFDYWGQGTLVTVSS VL: SSELTQDPAVSVALGQTVRITCQGDSLRSYYASWYQQKPGQAPVLVIYGKNNRPSGIPDRFSGSSSGNTASLTITGAQAEDEADYYCNSRDSSGNHWVFGGGTKLTVL | binds | 
20 | anti-EPOR antibody clonotype599 (antibody, V domains shown) VH: LVQLVESGGGVVQPGRSLRLSCAASGFTFSSYGMHWVRQAPGKGLEWVTLIWYDGSNTYYAESVKGRFTISRDNSKSTLYLHMNSLRAEDSAVYYCAGTYYYDSSGYLNYMDVWGKGTTVTVSS VL: SSELTQDPAVSVALGQTVRITCQGDSLRSYYASWYQQKPGQAPVLVIYGKNNRPSGIPDRFSGSSSGNTASLTITGAQAEDEADYYCNSRDSSGNHLVFGGGTKLTVL | binds | 
21 | anti-EPOR antibody clonotype573 (antibody, V domains shown) VH: EVQLVESGGGLVNPGGSLRLSCAASGFTFSNAWMSWVRQGPGRGLEWVGRIKSKSDGETIDYAAPVKGRFSFSRDDAENTLYLEMNSLKTEDTAVYYCTTEGSFNFYYFMDVWGKGTAVTVSS VL: SHMLTQPPSVSVAPGTTARITCGGNNFGSKSVHWYQQKPGQAPVLVIYYDSDRPSGIPERFSGSNSGNTATLTISRVEAGDEADYYCQVWDSTSDHYVFGTGTKVTVL | binds | 
